Test results reported in article PMC5674896.
Results are given in words; binding and its absence hold for the method and conditions named. Binding seen in cells or lysates may run through a third protein. Some results given as binding are weak or reduced against the parent protein; the word gives no strength.

Amino acid sequences for entries named in this document (tags omitted).
UniProt O43516: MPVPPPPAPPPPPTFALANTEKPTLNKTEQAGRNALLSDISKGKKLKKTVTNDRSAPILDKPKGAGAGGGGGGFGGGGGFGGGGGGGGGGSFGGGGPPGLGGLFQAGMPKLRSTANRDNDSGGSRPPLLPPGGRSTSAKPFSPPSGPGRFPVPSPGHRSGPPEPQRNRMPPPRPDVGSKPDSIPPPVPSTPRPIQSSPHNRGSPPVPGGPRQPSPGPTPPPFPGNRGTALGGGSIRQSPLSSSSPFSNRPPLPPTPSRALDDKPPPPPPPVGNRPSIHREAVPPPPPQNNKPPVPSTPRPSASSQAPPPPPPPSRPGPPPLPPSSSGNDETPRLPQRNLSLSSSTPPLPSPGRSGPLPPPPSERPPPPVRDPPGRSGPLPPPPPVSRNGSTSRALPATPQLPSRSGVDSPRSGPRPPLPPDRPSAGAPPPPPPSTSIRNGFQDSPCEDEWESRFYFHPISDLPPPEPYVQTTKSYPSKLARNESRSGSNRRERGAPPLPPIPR
UniProt Q6NX29: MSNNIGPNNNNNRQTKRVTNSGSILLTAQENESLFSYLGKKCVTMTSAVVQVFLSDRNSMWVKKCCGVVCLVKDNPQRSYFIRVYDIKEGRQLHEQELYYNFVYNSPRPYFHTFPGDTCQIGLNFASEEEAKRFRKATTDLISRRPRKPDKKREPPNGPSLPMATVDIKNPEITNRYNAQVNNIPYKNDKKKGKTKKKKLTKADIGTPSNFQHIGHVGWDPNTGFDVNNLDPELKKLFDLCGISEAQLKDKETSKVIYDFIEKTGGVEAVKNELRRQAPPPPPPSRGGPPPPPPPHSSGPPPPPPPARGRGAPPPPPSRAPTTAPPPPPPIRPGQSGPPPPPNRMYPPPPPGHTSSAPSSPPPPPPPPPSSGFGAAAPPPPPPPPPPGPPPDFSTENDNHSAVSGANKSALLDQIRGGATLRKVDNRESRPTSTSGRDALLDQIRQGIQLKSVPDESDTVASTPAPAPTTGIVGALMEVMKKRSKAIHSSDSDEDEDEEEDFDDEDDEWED

Target: ZZ-tagged human WIP (human) (UniProt O43516)
Test: pull-down; co-purification: 293F lysates incubated with IgG Sepharose 6 beads in XB buffer (100 mM KCl, 0.1 mM CaCl2, 1 mM MgCl2, 10 mM Hepes, pH 7.4) to capture ZZ-WIP; extensive washing; N-WASP–WIP complex released by TEV protease overnight; 4°C

SNAP-tagged X. tropicalis N-WASP (from UniProt Q6NX29 1-511)
binding: binds
